Assay results: the supplement of paper PMC10338343
± gives the standard deviation. The list shows a part of the results. The uncertainty is large for many entries.

system: EfPiwi piRISC loaded with L1MC piRNA (26 nt); experiment: pre-steady-state target cleavage rate (min^-1); guide: L1MC piRNA 5'p-UAACUAAAUACUAUGCAAGCUGUAGG; MIWI and MILI are mouse PIWI proteins and EfPiwi is from a freshwater sponge; tags in brackets are library labels; higher = faster piRNA-guided slicing of the target; details: auxiliary factor: 500 nM Ephydatia muelleri Gtsf1
Description: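 Cleave-'n-Seq: a library of target RNAs (target site in constant flanks) at […] was incubated with 1 nM active freshwater sponge Ephydatia fluviatilis Piwi piRISC (synthetic 5'-monophosphorylated piRNA guide) with or without 500 nM EmGtsf1 at 33 °C for 1 min to 16 h. Uncleaved targets were sequenced and the pooled three trials fitted to a burst-and-steady-state model to give the pre-steady-state cleavage rate (min^-1). Sequence is the target site only. Fits with R² ≤ 0 are excluded.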

UCCUGGAUGUCCUUGCAUUGUAUAUAGUUA was tested. Which “pre-steady-state target cleavage rate” value did it give?
Its value is 0.00093 ± 0.0068.

Which “pre-steady-state target cleavage rate” value does the source give for UCCUGGAUGUCGUUGCAUUAGUAUUUAGUUA here?
Its value is 0.00037 ± 0.0086.

Which “pre-steady-state target cleavage rate” value does the source give for UCCUGGAUGUCGAUGCAUAGUAUUCUAGUUA here?
The value was 0.000343 ± 0.0097.

UCCUGGAUGUGCUUGCAUAGUAUAUACUUA was tested. Which “pre-steady-state target cleavage rate” value did it give?
Its value is 0.000307 ± 0.019.

For UCCUGGAUCAGCUUGCAUAGUAUAAUGAAA, which “pre-steady-state target cleavage rate” value is on record?
Its value is 0.0033 ± 0.0037.

For UCCUGGAUGUCGAACCAUAUGUAUUUAGUUA, which “pre-steady-state target cleavage rate” value is on record?
The value was 0.000252 ± 0.023.

Which “pre-steady-state target cleavage rate” value does the source give for UCCUGGAUGUCCAUGCAUAGUAUAUAGUUA here?
The value was 0.00178 ± 0.0068.

Which “pre-steady-state target cleavage rate” value does the source give for UCCUGGAUGUCCUUGCAUAGCAUUUAGUUA here?
Its value is 0.000907 ± 0.0029.

With UCCUGGAACAGCAUGCAUAGUAUUUAGAUA as the sequence, how does the “pre-steady-state target cleavage rate” value read?
The value was 0.00441 ± 0.0022.

UCCUGGUAGUGCUUGCAUAGUAUUUAGUUA was tested. Which “pre-steady-state target cleavage rate” value did it give?
The value was 0.0152 ± 0.0047.

UCCUGCUACAGCUUGCAUUCAAUUUAGUAA was tested. Which “pre-steady-state target cleavage rate” value did it give?
The value was 0.00147 ± 0.0035.

UCCUGGAUGUCCUUGCAUAGUUAUUAGUAA was tested. Which “pre-steady-state target cleavage rate” value did it give?
The value was 0.000529 ± 0.0083.

How did the “pre-steady-state target cleavage rate” value turn out when UCCUGGAUGCGCUUGCAUAGUAUUUAGUUA was run?
Its value is 0.0286 ± 0.0065.

UCCUGGAUGUGCUUGCAUAGUAUUAAGAUA was tested. Which “pre-steady-state target cleavage rate” value did it give?
The value was 0.000898 ± 0.0045.

With UCCUGGAACAGCUUGCUUAGUAAUUAGUUA as the sequence, how does the “pre-steady-state target cleavage rate” value read?
Its value is 0.00639 ± 0.0027.

Which “pre-steady-state target cleavage rate” value does the source give for UCCUGCUACAGCUUGCAUAGUAUUUUGAAA here?
Its value is 0.0045 ± 0.0018.

For UCCUGGAACAGCUUGCAUACAAUUUACAAA, which “pre-steady-state target cleavage rate” value is on record?
The value was 0.000806 ± 0.0042.

How did the “pre-steady-state target cleavage rate” value turn out when UCCUGGAUGUCGAUGCAUAGUAUUAAGAUA was run?
Its value is 0.000836 ± 0.0095.

Which “pre-steady-state target cleavage rate” value does the source give for UCCUGGAUCAGCUACCAUAGUAUUUACAAA here?
Its value is 0.00131 ± 0.0072.

For UCCUGGAUGUGCUUGCAUAGUAUUUUAGUUA, which “pre-steady-state target cleavage rate” value is on record?
The value was 0.00401 ± 0.005.

With UCCUCCUACCGCUUGCAUAGUAUUUAGUUA as the sequence, how does the “pre-steady-state target cleavage rate” value read?
Its value is 0.0865 ± 0.023.

UCCUGGUACAGCUUGCAUAGUAUUUAUGUUA was tested. Which “pre-steady-state target cleavage rate” value did it give?
Its value is 0.00329 ± 0.0024.

For UCCUGGAUGUCGAACCAUAGUUUUAGUUA, which “pre-steady-state target cleavage rate” value is on record?
Its value is less than 0.0001.

same assay, conditions: auxiliary factor: none (no Gtsf1)

How did the “pre-steady-state target cleavage rate” value turn out when UCCUGGAUGUCCUUGCAUUGUAUAUAGUUA was run?
Its value is 0.000142 ± 0.052.

How did the “pre-steady-state target cleavage rate” value turn out when UCCUGGAUGUCGUUGCAUUAGUAUUUAGUUA was run?
The value was 0.000402 ± 0.02.

How did the “pre-steady-state target cleavage rate” value turn out when UCCUGGAUGUCGAUGCAUAGUAUUCUAGUUA was run?
The value was 0.000154 ± 0.054.

Which “pre-steady-state target cleavage rate” value does the source give for UCCUGGAUGUGCUUGCAUAGUAUAUACUUA here?
Its value is 0.000501 ± 0.013.

How did the “pre-steady-state target cleavage rate” value turn out when UCCUGGAUGUCGAUGUAUAGUAUUUAGUUA was run?
The value was 0.000499 ± 0.017.

Which “pre-steady-state target cleavage rate” value does the source give for UCCUGGAACAGCAUGCAUAGUAUUUAGAUA here?
Its value is 0.000411 ± 0.021.

For UCCUGGUAGUGCUUGCAUAGUAUUUAGUUA, which “pre-steady-state target cleavage rate” value is on record?
Its value is 0.00155 ± 0.0076.

Which “pre-steady-state target cleavage rate” value does the source give for UCCUGCUACAGCUUGCAUUCAAUUUAGUAA here?
The value was 0.000224 ± 0.026.

Which “pre-steady-state target cleavage rate” value does the source give for UCCUGGAUGUCCUUGCAUAGUUAUUAGUAA here?
Its value is 0.000109 ± 0.067.

How did the “pre-steady-state target cleavage rate” value turn out when UCCUGGAUGUGCUUGCAUAGUAUUAAGAUA was run?
The value was 0.00108 ± 0.0091.

How did the “pre-steady-state target cleavage rate” value turn out when UCCUGCUACAGCUUGCAUAGUAUUUUGAAA was run?
Its value is 0.00017 ± 0.023.

Which “pre-steady-state target cleavage rate” value does the source give for UCCUGGAACAGCUUGCAUACAAUUUACAAA here?
Its value is 0.00076 ± 0.0096.

With UCCUGGAUGUCGAUGCAUAGUAUUAAGAUA as the sequence, how does the “pre-steady-state target cleavage rate” value read?
The value was 0.000329 ± 0.019.

With UCCUGGAUCAGCUACCAUAGUAUUUACAAA as the sequence, how does the “pre-steady-state target cleavage rate” value read?
Its value is 0.000125 ± 0.056.

UCCUGGAUGUGCUUGCAUAGUAUUUUAGUUA was tested. Which “pre-steady-state target cleavage rate” value did it give?
Its value is 0.000434 ± 0.044.

With UCCUGGUACAGCUUGCAUAGUAUUUAUGUUA as the sequence, how does the “pre-steady-state target cleavage rate” value read?
The value was 0.000967 ± 0.014.

UCCUGGAUGUCGAACCAUAGUUUUAGUUA was tested. Which “pre-steady-state target cleavage rate” value did it give?
Its value is less than 0.0001.
